# Percent effect of library compounds

Data taken from ChEMBL document CHEMBL3988442, “University of Dundee, Small-Polar-MMV Screening Library” (2021).

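Whole-cell growth test on Mycobacterium tuberculosis, read after 3 days in glucose-containing 7H9 medium; the read-out is not stated. Tested at 50 µM. Higher reads as more growth inhibition (inferred: compounds with an IC50 in retests scored well above the rest). About 69,000 compounds were tested under these conditions; 1.1% (about 760) showed 50% or more at least once.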

The filed quantity is “Percent Effect” (%). How 0% and 100% were set is not recorded. Most values in the screen are low, and negative values occur. The compounds are a random part of those screened. Two or more numbers in one place are separate tests of the same structure; such repeats can differ widely.

CC(C)NC(=O)N1CCC2(CC1)CCn1c(C3CC3)cnc12 read -6.631% & 19.59%.
CN(C)c1ncccc1CNC(=O)NCc1ccc(Cl)s1 read -1.879%.
CCn1cc(NC(=O)NCC(c2cccc(F)c2)N(C)C)cn1 (centres unmarked) read -7.113%.
O=c1[nH]c(N2CCN(C3CC3)CC2)nc2c1cnn2-c1ccccc1 read 11.41%.
COCCO[C@H]1CCN(c2ccc(C)nn2)[C@H]1Cc1cccnc1.O=C(O)C(F)(F)F.O=C(O)C(F)(F)F read -0.03627%.
CC(C)n1ccnc1Cn1ccc2ncccc2c1=O read -52.23%.
CCN(Cc1cnn(CC)c1)C(=O)Cn1c(=O)c(C)nc2ccccc21 read -23.82%.
O=c1[nH]c2ccccc2cc1CN(Cc1ccccn1)CC1CCCO1 (centres unmarked) read 1.212%.
CCN(C(=O)C1CC1)C(c1cccnc1)c1ccc2c(c1)CCO2 (centres unmarked) read 7.618%.
CCSc1cncc(N2CCC(NC(=O)C3CCCCC3)CC2)n1 read 22.64%.
CCN(C)c1cc(CNC(=O)CNC(=O)CC2CCCCC2)ccn1 read -17.18%.
CS(=O)(=O)CCNC1CCCN(Cc2noc(C3CC3)n2)C1 (centres unmarked) read -14.13% & -1.424%.
COc1cccc2c1OCC(Cc1ccc(N)nc1C)C2 (centres unmarked) read -12.95% & 5.907%.
CCCn1nnnc1COc1cc(OC)ccc1C(=O)OC read -12.7%.
CS(=O)(=O)N1CCC(O)(Cn2c(C3CC3)nc3ccccc3c2=O)CC1 read -15.26%.
CN(Cc1ccccc1-n1cccn1)c1nc(N)nc2c1CCNCC2 read 5.349%.
Cc1ccc2c(c1)CCC21CCN(C(=O)CO)CC1 read -8.497%.
Cc1ccc(OCCN(C)Cc2cscn2)cc1 read 12.46% & -1.664%.
Cn1cc(CN2CCc3nc4ccccc4c(=O)n3CC2)cn1 read -10.9%.
O=C(NCCOC1CCCCC1)c1ccc(-c2ccco2)[nH]c1=O read -38.16%.
Cc1cc(C(=O)O)cc(S(=O)(=O)Nc2ccc3c(c2)OCCCO3)c1C read -28.47%.
O=C(O)C(F)(F)F.[H][C@@]12COC[C@]1(COc1cccnc1)CN(C(=O)COc1ccccc1)C2 read 10.79%.
CS(=O)(=O)N[C@@H]1CCO[C@]2(CCN(CC3CCOCC3)C2)C1.O=C(O)C(F)(F)F read -35.77%.
[H][C@@]12CCN(C(=O)c3ccccc3)C[C@@]1([H])O[C@@H](c1nccs1)C2 read 20.08%.
Cc1oc(-c2cccc(F)c2F)nc1CN(C)CCC(C)(C)O read 13.94%.
CN(C)c1ncc2c(n1)CN(C1CC(C)(C)NC(C)(C)C1)C2=O read 25.04%.
Cn1cccc1C(=O)N1CCC2(CC1)CCN2S(C)(=O)=O read -25.31%.
CC(C)(CNC(=O)C(C)(C)c1ccccc1F)C(N)=O read -5.164%.
COc1cccc(OC)c1CN1CCC2(CC(Nc3ccncn3)C2)C1 (centres unmarked) read 29.95%.
CN1CC2(CCN(C(=O)c3ccc(=O)n(C)c3)CC2)CC1=O read -27.42%.
O=C(c1cc2c(F)cccc2[nH]1)N1CCCCC1Cn1cccn1 (centres unmarked) read 16.69%.

The last 2 entries again:

{"smiles": "CN1CC2(CCN(C(=O)c3ccc(=O)n(C)c3)CC2)CC1=O", "Percent Effect": -27.42}
{"smiles": "O=C(c1cc2c(F)cccc2[nH]1)N1CCCCC1Cn1cccn1", "stereo": "centres unmarked", "Percent Effect": 16.69}